Values of other authors in US7101842B2, “Targeted delivery of drugs for the treatment of parasitic infections” (priority 2001, dated 2006).
At least one structure is not confirmed: it was looked up by name or label, or the drawing left a doubt.

Key:
[1] = iron chelator, tightly binds iron
cerebral malaria = conditions: standard anti-malarial therapy plus 100 mg/kg/day, comatose children

In the case of `CC(=O)N(O)CCCCCNC(=O)CCC(=O)N(O)CCCCCNC(=O)CCC(=O)N(O)CCCCCN` [deferoxamine], the “affinity of iron binding” value [1] is listed as 10^31 /M and the “recovery compared with the same anti-malarial therapy without the chelator” value (cerebral malaria) is listed as “recovered more rapidly”.
